The values that follow come from publication PMC9842591.

Results are given in words; binding and its absence hold for the method and conditions named. Binding seen in cells or lysates may run through a third protein. Binding can be weak; no strength is given. Sequences can lack the tags named with a protein.

Assay [1] concerns the target FLAG-tagged USP19-CY-wt (cytosolic isoform of ubiquitin-specific protease 19) (human). The assay can be described thus: co-IP; HEK293T cells co-transfected with FLAG-tagged USP19 (ER or CY; wt or active-site mutant) and TβRI; lysate incubated with anti-Flag agarose beads 2 h at 4 °C, beads washed five times with TNE buffer; immunoblotting for TβRI. For orientation: A western blot detects proteins with antibodies after separation by electrophoresis.

The target in assay [2] is FLAG-tagged USP19-CY-C506A (active site mutant of the cytosolic USP19 isoform) (human). The description is as above.

B1: HA-tagged TGF-β type I receptor (TβRI) (receptor, UniProt P36897 34-503)
chain: LQCFCHLCTKDNFTCVTDGLCFVSVTETTDKVIHNSMCIAEIDLIPRDRPFVCAPSSKTGSVTTTYCCNQDHCNKIELPTTVKSSPGLGPVELAAVIAGPVCFVCISLMLMVYICHNRTVIHHRVPNEEDPSLDRPFISEGTTLKDLIYDMTTSGSGSGLPLLVQRTIARTIVLQESIGKGRFGEVWRGKWRGEEVAVKIFSSREERSWFREAEIYQTVMLRHENILGFIAADNKDNGTWTQLWLVSDYHEHGSLFDYLNRYTVTVEGMIKLALSTASGLAHLHMEIVGTQGKPAIAHRDLKSKNILVKKNGTCCIADLGLAVRHDSATDTIDIAPNHRVGTKRYMAPEVLDDSINMKHFESFKRADIYAMGLVFWEIARRCSIGGIHEDYQLPYYDLVPSDPSVEEMRKVVCEQKLRPNIPNRWQSCEALRVMAKIMRECWYANGAARLTALRIKKTLSQLSQQEGIKM
Regarding B1, the binding result in assay [1] and in assay [2] was “binds” in each case.
